Literature values as cited in patent US7700272B2, “Polynucleotides encoding acetylcholine-gated chloride channel subunits of Caenorhabditis elegans” (priority 2004, dated 2010).
At least one compound was matched to its structure with a doubt left.

Amino acid sequences for entries named in this document (tags omitted). Residues count along the entry.
UniProt P43144, 26-479: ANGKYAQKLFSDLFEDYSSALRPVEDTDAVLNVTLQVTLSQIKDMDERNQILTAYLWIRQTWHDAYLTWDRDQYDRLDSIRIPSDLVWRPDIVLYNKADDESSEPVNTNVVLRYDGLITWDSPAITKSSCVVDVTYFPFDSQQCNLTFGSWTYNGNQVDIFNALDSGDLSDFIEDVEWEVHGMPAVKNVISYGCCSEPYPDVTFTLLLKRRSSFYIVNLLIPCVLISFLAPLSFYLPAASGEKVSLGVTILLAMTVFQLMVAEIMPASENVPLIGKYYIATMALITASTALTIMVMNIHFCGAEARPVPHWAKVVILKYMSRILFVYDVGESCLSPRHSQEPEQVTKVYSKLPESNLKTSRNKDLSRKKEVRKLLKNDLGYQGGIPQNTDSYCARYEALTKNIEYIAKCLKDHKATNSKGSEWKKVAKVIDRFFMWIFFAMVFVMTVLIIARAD

Molecular target: rat α9nAChRs (Rattus norvegicus, UniProt P43144)
Details: concentration tested in brackets where printed; cited from earlier work

SMILES: CC(=O)OCC[N+](C)(C)C [ACh, acetylcholine]
- agonist action (in words): Agonist
